PubChem BioAssay AID1259294 | Sanger Institute | 2017
Here is an unselected part of 160 deposited reagents. 43 of all reagents (27%) were called active. 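Calls mean synergy with any one drug, not lethality of knock-down alone; BYL719 1 µM, cetuximab 5 µg/ml, trametinib 10 nM barely cut viability.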 Reagents against one gene are numbered here. Further read-outs or replicates are left out here. Not stated in the record: the amount of reagent, the time to read-out.

Assay: 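Knock-downs that boost anti-cancer drug killing in colorectal cancer cells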 (follow-up of hits)
Cell system: human CL40 colorectal cancer cells
Reagents: single siRNA against human genes
Conditions: anchor drug or DMSO vehicle added to knock-down cells: BYL719 1 µM, cetuximab 5 µg/ml, trametinib 10 nM
Measurement: 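Cell viability after knock-down with vehicle or drug, each replicate set against non-targeting pool 2 and then averaged; synergy score weighs the observed combined effect against the expected one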
Scale: synergy score with trametinib and synergy score with BYL719 and synergy score with cetuximab: higher = stronger synergistic (synthetic lethal) killing
Call rule: 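a synergy score over 0.10 with BYL719, cetuximab or trametinib marks synergy with a drug; lacking such a score means no synergy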
Meaning of the calls: active = synergy with a drug; inactive = no synergy

no.	gene knocked down	reagent	synergy score with trametinib	synergy score with BYL719	synergy score with cetuximab	Call
1	PAK1	1	0.17	0.0655	-0.106	active
2	PAK1	2	0.0875	0.0318	-0.019	inactive
3	PAK1	3	0.163	0.105	-0.345	active
4	PAK1	4	0.0882	-0.251	0.202	active
5	GTF2H1	1	-0.0853	-0.19	-0.258	inactive
6	GTF2H1	2	-0.0312	-0.225	-0.105	inactive
7	GTF2H1	3	-0.186	-0.265	-0.106	inactive
8	GTF2H1	4	-0.0273	-0.0273	-0.126	inactive
9	CAMK2N1	1	0.0171	-0.0737	-0.106	inactive
10	CAMK2N1	2	-0.178	-0.384	-0.155	inactive
11	CAMK2N1	3	-0.0439	-0.101	-0.0404	inactive
12	CAMK2N1	4	-0.0917	-0.341	-0.0193	inactive
13	PLK1	1	-0.0204	-0.0373	-0.101	inactive
14	PLK1	2	0.0469	-0.0592	-0.0126	inactive
15	PLK1	3	0.00204	0.0171	-0.0373	inactive
16	PLK1	4	0.00138	-0.0635	-0.0433	inactive
17	EPHA6	1	0.0151	-0.277	-0.233	inactive
18	EPHA6	2	0.179	-0.00463	-0.112	active
19	EPHA6	3	0.0557	-0.0532	0.116	active
20	EPHA6	4	0.123	0.0356	0.024	active

A run of entries from the list above, as a working copy:
no.	gene knocked down	reagent	synergy score with trametinib	synergy score with BYL719	synergy score with cetuximab	Call
18	EPHA6	2	0.179	-0.00463	-0.112	active
19	EPHA6	3	0.0557	-0.0532	0.116	active
20	EPHA6	4	0.123	0.0356	0.024	active
